For at least one compound, name, drawing or mass did not settle the structure.
Experiments:
MINOR gene expression = assay: Quantitative real-time PCR of MINOR gene expression in 3T3-L1 adipocytes; type: cell-based; settings: for MINOR gene expression: 10 uM thiazolidinedione, 0 to 48 hours
Method: (§1) FIGS. 3A-3C show the effect of insulin stimulation on MINOR and TR3 gene expression in 3T3-L1 adipocytes. FIGS. 3A and 3B show insulin induces the expression of MINOR and TR3 gene expression in 3T3-L1 adipocytes. Fully differentiated 3T3-L1 adipocytes were treated with 100 nM of insulin for up to 8 hours (treated) or 0 nM insulin (0 hour control). The control and treated adipocytes were lysed and the mRNAs were extracted for cDNA synthesis. Quantitative real-time PCR was used to measure expression of MINOR (FIG. 3A) and TR3 (FIG. 3B) genes. Results represent the mean±SE from three separate experiments. […] Fully differentiated 3T3-L1 adipocytes were treated with 100 nM of insulin alone (control) or plus LY294002 (PI 3-kinase inhibitor), SB203580 (p38 MAP kinase inhibitor), Ro318220 (protein kinase C inhibitor) for one hour. The control and treated adipocytes were lysed and the mRNAs were extracted for cDNAs synthesis. A quantitative real-time PCR was performed for detecting the expression levels of MINOR and TR3 genes. Results represent the mean±SE from three separate experiments.
(§2) Fully differentiated 3T3-L1 adipocytes were treated with 10 uM of the indicated thiazolidinedione (troglitazone or pioglizatone) from 0 to 48 hours. Control cells received vehicle alone. The control and treated adipocytes were lysed and the mRNAs were extracted for cDNA synthesis. Quantitative real-time PCR was used to measure expression levels of MINOR (FIGS. 4A and 4B) and TR3 (FIGS. 4C and 4D) genes. […]
(§3) Fully differentiated 3T3-L1 adipocytes were treated with 100 nM of insulin for various times (0 to 8 hours; the 0 hour time point served as the control and received no added insulin). […] A quantitative real-time PCR was performed for detecting the expression levels of MINOR and TR3 genes. […]
(§4) The stimulatory effect of insulin on MINOR and TR3 gene expression was dependent on signal transduction via the PI-3-kinase pathway, the p38 MAP-K pathway and the protein kinase C (PKC) pathway. […] A quantitative real-time PCR was performed for detecting the expression levels of MINOR and TR3 genes. […]

TR3 gene expression = assay: Quantitative real-time PCR of TR3 gene expression in 3T3-L1 adipocytes; type: cell-based; settings: for TR3 gene expression: 10 uM thiazolidinedione, 0 to 48 hours
Method: as §1, §2, §3, §4

[1] = 100 nM insulin plus inhibitor 10 nM, 1 hour

| SMILES | insulin-stimulated MINOR gene expression (MINOR gene expression; [1]) | insulin-stimulated TR3 gene expression (TR3 gene expression; [1]) | MINOR gene expression (MINOR gene expression) | TR3 gene expression (TR3 gene expression) |
| --- | --- | --- | --- | --- |
| O=c1cc(N2CCOCC2)oc2c(-c3ccccc3)cccc12 [LY294002] | decreased the ability of insulin to stimulate | decreased the ability of insulin to stimulate |  |  |
| CCc1ccc(CCOc2ccc(CC3SC(=O)NC3=O)cc2)nc1 (stereo not drawn) [pioglitazone] |  |  | stimulate | stimulate |
| Cc1c(C)c2c(c(C)c1O)CCC(C)(COc1ccc(CC3SC(=O)NC3=O)cc1)O2 (stereo not drawn) [troglitazone] |  |  | stimulate | stimulate |

From patent US20060234910A1, “Methods for the treatment of insulin resistance and disease states characterized by insulin resistance” (priority 2005, published 2006)
